# Laboratory results as given in PubChem BioAssay AID493074 (National Center for Advancing Translational Sciences (NCATS), 2011).
# The inconclusive results got no clear call from the source; some entries with a clear call stand among them for comparison. A potency beside an inconclusive call is a rough fit, not a confirmed value. Activity calls are given as the source filed them. Calls come from the whole dose curve; as a rule, active = well fitted cell-killing curve with a large enough effect; inconclusive = small, poorly fitted or top-dose-only effect; inactive = no such curve, though single readings can be large or run the other way.
# Assay: H358 Cell Viability Secondary Assay for qHTS Assay for Epigenetic Modulators: Round 2
# Conditions: H358 NSCLC viability, ATP luminescence, 72 h; series mostly up to 46.1 µM
# From the text: NIH Molecular Libraries Screening Centers Network [MLSCN] NIH Chemical Genomics Center [NCGC] MLSCN Grant: 1 X01 MH079860-01 Assay Provider: Elisabeth D. Martinez, University of Texas SW Medical Center NCGC Assay Overview: This secondary assay characterizes selected actives identified in the qHTS of the Locus Derepression (LDR) assay (PubChem AID 1865). The LDR assay detects the derepression of a GFP reporter that is stably integrated in a region of the genome of murine c127i mammary cells that is presumably silenced. Compounds that cause derepression of the locus to express GFP are identified by enumerating GFP positive cells using a laser-scanning microplate cytometer. Selected LDR actives were assayed for killing of H358 non-small cell lung carcinoma (NSCLC) cells. Certain epigenetic drugs, like histone deacetylase inhibitors, can block cancer cell growth. Cell viability was measured using a luminescence-based detection reagent that measures cellular ATP levels.
# NCGC Assay Protocol Summary H358 cells were seeded at 125 cells/5 uL/well in white, solid bottom, 1536 well plates (Greiner). After 16-hour incubation at 37deg C and 5% CO2, 23 nL of compound were transferred into the assay plate via a pin tool. Plates were incubated 72 hours at 37deg C and 5% CO2, then 3.5 uL/well CellTiter-Glo(R) (Promega) detection reagent was added, plates were incubated at ambient temperature for 10 minutes and luminescence was measured by a ViewLux (Perkin Elmer) reader. For further details, see Johnson, RL, Huang, W, Jadhav, A, Austin, CP, Inglese, J, Martinez, ED (2008). A quantitative high-throughput screen identifies potential epigenetic modulators of gene expression. Anal Biochem 375: 237-48.
row,Structure (SMILES),Potency
1,CCCCOC(=O)Cn1c2ccc(OC)cc2c2nc3ccccc3nc21,"inconclusive: 28.1 µM [cytotoxic, partial curve]"
2,COc1nc(Nc2nc3ccccc3c(=O)[nH]2)nc2ccc(C)cc12,active: 3.15 µM
3,O=C1CN(c2nc(-c3ccccc3)c3cc(Cl)ccc3n2)c2ccccc2N1,"inconclusive: 12.5 µM [cytotoxic, single point]"
4,O=C(N/N=C/c1ccccn1)c1cc(-c2ccc(Cl)cc2)nc2ccccc12,"inconclusive: 8.88 µM [cytotoxic, partial curve]"
5,NC(=S)N/N=C/c1ncc(C(F)(F)F)cc1Cl,"inconclusive: 1.25 µM [cytotoxic, full curve]"
6,O=[N+]([O-])/C(C=Nc1ccccc1O)=C\Nc1ccccc1O,"inconclusive: 15.8 µM [cytotoxic, partial curve]"
7,COCCNC(=S)N/N=C(\C)c1ccccc1O,"inconclusive: 1.25 µM [cytotoxic, full curve]"
8,O=C1C=C(Nc2ccc(Cl)cc2)C(=O)N1c1ccc(Cl)cc1,inactive
9,C(=N\Nc1nc(-c2ccccn2)nc2ccccc12)/c1ccccc1,"inconclusive: 0.445 µM [cytotoxic, full curve]"
10,O=C(NN1C(=O)c2ccccc2NC1c1ccc([N+](=O)[O-])o1)c1ccc([N+](=O)[O-])cc1 (stereo not drawn),"inconclusive: 7.91 µM [cytotoxic, partial curve, poor fit]"
11,CCOn1c(=O)c[n+]([O-])c2ccccc21,inactive
12,N=c1n(CC(=O)c2ccc([N+](=O)[O-])cc2)c2ccccc2n1Cc1ccccc1Cl,"inconclusive: 14.1 µM [cytotoxic, partial curve]"
13,Oc1ccc(Br)cc1C=Nc1ccc2c3c(cccc13)CC2,"inconclusive: 11.2 µM [cytotoxic, partial curve, poor fit]"

# Ordered by heavy-atom count (falling): 3 of the compounds above.
row,Structure (SMILES),Potency
1,CCCCOC(=O)Cn1c2ccc(OC)cc2c2nc3ccccc3nc21,"inconclusive: 28.1 µM [cytotoxic, partial curve]"
8,O=C1C=C(Nc2ccc(Cl)cc2)C(=O)N1c1ccc(Cl)cc1,inactive
5,NC(=S)N/N=C/c1ncc(C(F)(F)F)cc1Cl,"inconclusive: 1.25 µM [cytotoxic, full curve]"
